# The other results are listed elsewhere or left out.
# B1: MFG-E8 (Mus musculus), P21956 (protein)
# chain: MQVSRVLAALCGMLLCASGLFAASGDFCDSSLCLNGGTCLTGQDNDIYCLCPEGFTGLVCNETERGPCSPNPCYNDAKCLVTLDTQRGDIFTEYICQCPVGYSGIHCETETNYYNLDGEYMFTTAVPNTAVPTPAPTPDLSNNLASRCSTQLGMEGGAIADSQISASSVYMGFMGLQRWGPELARLYRTGIVNAWTASNYDSKPWIQVNLLRKMRVSGVMTQGASRAGRAEYLKTFKVAYSLDGRKFEFIQDESGGDKEFLGNLDNNSLKVNMFNPTLEAQYIKLYPVSCHRGCTLRFELLGCELHGCSEPLGLKNNTIPDSQMSASSSYKTWNLRAFGWYPHLGRLDNQGKINAWTAQSNSAKEWLQVDLGTQRQVTGIITQGARDFGHIQYVASYKVAHSDDGVQWTVYEEQGSSKVFQGNLDNNSHKKNIFEKPFMARYVRVLPVSWHNRITLRLELLGC
# Legend:
# Assay in all cases: glycan array binding signal (z-score within array); higher = stronger binding
# Settings in all cases: glycan notation: IUPAC condensed, linker removed
# [1] = biological target: GlcNAc(b1-3)Gal(b1-4)GlcNAc(b1-6)[GlcNAc(b1-3)Gal(b1-3)]GalNAc
# Outline: (§1)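 The binding signal is a Z-score computed within each array. Data were drawn from 3228 arrays in the Consortium for Functional Glycomics database, restricted to those with a known protein sequence. Scores were averaged over arrays of the same protein sequence at different concentrations or buffers, and over linkers, and negative values can be taken as non-binding.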
# [2] = biological target: GlcNAc(b1-3)Gal(b1-4)GlcNAc(b1-6)[GlcNAc(b1-3)]Gal(b1-4)GlcNAc
# Outline: as §1
# GlcNAc(b1-3)GalNAc = biological target: GlcNAc(b1-3)GalNAc
# Outline: as §1
# GlcNAc(b1-3)Man = biological target: GlcNAc(b1-3)Man
# Outline: as §1
# [3] = biological target: GlcNAc(b1-3)[GlcNAc(b1-4)][GlcNAc(b1-6)]GlcNAc
# Outline: as §1
# [4] = biological target: GlcNAc(b1-3)[GlcNAc(b1-6)]Gal(b1-4)GlcNAc
# Outline: as §1
# [5] = biological target: GlcNAc(b1-3)[GlcNAc(b1-6)]GalNAc
# Outline: as §1
# [6] = biological target: GlcNAc(b1-4)Gal(b1-4)GlcNAc
# Outline: as §1
# GlcNAc(b1-4)GlcNAc = biological target: GlcNAc(b1-4)GlcNAc
# Outline: as §1
# [7] = biological target: GlcNAc(b1-4)GlcNAc(b1-4)GlcNAc
# Outline: as §1
# [8] = biological target: GlcNAc(b1-4)GlcNAc(b1-4)GlcNAc(b1-4)GlcNAc(b1-4)GlcNAc
# Outline: as §1
# [9] = biological target: GlcNAc(b1-4)GlcNAc(b1-4)GlcNAc(b1-4)GlcNAc(b1-4)GlcNAc(b1-4)GlcNAc
# Outline: as §1
# [10] = biological target: GlcNAc(b1-4)[GlcNAc(b1-6)]GalNAc
# Outline: as §1
# [11] = biological target: GlcNAc(b1-6)Gal(b1-4)GlcNAc
# Outline: as §1
# GlcNAc(b1-6)GalNAc = biological target: GlcNAc(b1-6)GalNAc
# Outline: as §1
# GlcNAc3Prop(b1-4)GlcNAc = biological target: GlcNAc3Prop(b1-4)GlcNAc
# Outline: as §1
# [12] = biological target: GlcNAc6S(b1-3)Gal(b1-4)GlcNAc
# Outline: as §1
# Kdn(a2-3)Gal(b1-3)GalNAc = biological target: Kdn(a2-3)Gal(b1-3)GalNAc
# Outline: as §1
# Kdn(a2-3)Gal(b1-3)GlcNAc = biological target: Kdn(a2-3)Gal(b1-3)GlcNAc
# Outline: as §1
# Kdn(a2-3)Gal(b1-4)Glc = biological target: Kdn(a2-3)Gal(b1-4)Glc
# Outline: as §1
# Kdn(a2-3)Gal(b1-4)GlcNAc = biological target: Kdn(a2-3)Gal(b1-4)GlcNAc
# Outline: as §1
# [13] = biological target: Kdn(a2-3)Gal(b1-4)[Fuc(a1-3)]GlcNAc
# Outline: as §1
# Kdn(a2-6)Gal(b1-4)GlcNAc = biological target: Kdn(a2-6)Gal(b1-4)GlcNAc
# Outline: as §1
# [14] = biological target: Man(a1-2)Man(a1-2)Man(a1-3)Man
# Outline: as §1
# [15] = biological target: Man(a1-2)Man(a1-2)Man(a1-6)[Man(a1-3)]Man
# Outline: as §1
# Man(a1-2)Man(a1-3)Man = biological target: Man(a1-2)Man(a1-3)Man
# Outline: as §1
# [16] = biological target: Man(a1-2)Man(a1-3)[Man(a1-2)Man(a1-6)]Man
# Outline: as §1
# [17] = biological target: Man(a1-2)Man(a1-3)[Man(a1-2)Man(a1-6)]Man(a1-6)[Man(a1-2)Man(a1-2)Man(a1-3)]Man
# Outline: as §1
# [18] = biological target: Man(a1-2)Man(a1-3)[Man(a1-2)Man(a1-6)]Man(a1-6)[Man(a1-2)Man(a1-2)Man(a1-3)]Man(b1-4)GlcNAc(b1-4)GlcNAc
# Outline: as §1
# [19] = biological target: Man(a1-2)Man(a1-3)[Man(a1-6)]Man(a1-6)[Man(a1-2)Man(a1-3)]Man(b1-4)GlcNAc(b1-4)GlcNAc
# Outline: as §1
# [20] = biological target: Man(a1-2)Man(a1-6)[Man(a1-3)]Man(a1-6)[Man(a1-2)Man(a1-2)Man(a1-3)]Man
# Outline: as §1
# [21] = biological target: Man(a1-2)Man(a1-6)[Man(a1-3)]Man(a1-6)[Man(a1-2)Man(a1-2)Man(a1-3)]Man(b1-4)GlcNAc(b1-4)GlcNAc
# Outline: as §1
# Man(a1-3)[Man(a1-6)]Man = biological target: Man(a1-3)[Man(a1-6)]Man
# Outline: as §1
# [22] = biological target: Man(a1-3)[Man(a1-6)]Man(a1-6)[Man(a1-2)Man(a1-3)]Man(b1-4)GlcNAc(b1-4)GlcNAc
# Outline: as §1
# [23] = biological target: Man(a1-3)[Man(a1-6)]Man(a1-6)[Man(a1-3)]Man
# Outline: as §1
# [24] = biological target: Man(a1-3)[Man(a1-6)]Man(a1-6)[Man(a1-3)]Man(b1-4)GlcNAc(b1-4)GlcNAc
# Outline: as §1
# [25] = biological target: Man(a1-3)[Man(a1-6)]Man(b1-4)GlcNAc(b1-4)GlcNAc
# Outline: as §1
# [26] = biological target: Man(a1-3)[Man(a1-6)]Man(b1-4)GlcNAc(b1-4)[Fuc(a1-6)]GlcNAc
# Outline: as §1
binder,measurement,setting,value
B1,glycan array binding signal (z-score),[1],-0.461
same,glycan array binding signal (z-score),[2],-0.516
same,glycan array binding signal (z-score),GlcNAc(b1-3)GalNAc,-0.377
same,glycan array binding signal (z-score),GlcNAc(b1-3)Man,-0.523
same,glycan array binding signal (z-score),[3],1.84
same,glycan array binding signal (z-score),[4],-0.032
same,glycan array binding signal (z-score),[5],-0.369
same,glycan array binding signal (z-score),[6],-0.063
same,glycan array binding signal (z-score),GlcNAc(b1-4)GlcNAc,0.017
same,glycan array binding signal (z-score),[7],-0.582
same,glycan array binding signal (z-score),[8],0.23
same,glycan array binding signal (z-score),[9],-0.779
same,glycan array binding signal (z-score),[10],-0.764
same,glycan array binding signal (z-score),[11],-0.789
same,glycan array binding signal (z-score),GlcNAc(b1-6)GalNAc,0.316
same,glycan array binding signal (z-score),GlcNAc3Prop(b1-4)GlcNAc,-0.899
same,glycan array binding signal (z-score),[12],-0.316
same,glycan array binding signal (z-score),Kdn(a2-3)Gal(b1-3)GalNAc,-0.006
same,glycan array binding signal (z-score),Kdn(a2-3)Gal(b1-3)GlcNAc,-0.083
same,glycan array binding signal (z-score),Kdn(a2-3)Gal(b1-4)Glc,-0.226
same,glycan array binding signal (z-score),Kdn(a2-3)Gal(b1-4)GlcNAc,0.153
same,glycan array binding signal (z-score),[13],-0.674
same,glycan array binding signal (z-score),Kdn(a2-6)Gal(b1-4)GlcNAc,-0.046
same,glycan array binding signal (z-score),[14],-0.155
same,glycan array binding signal (z-score),[15],-0.25
same,glycan array binding signal (z-score),Man(a1-2)Man(a1-3)Man,-0.726
same,glycan array binding signal (z-score),[16],0.255
same,glycan array binding signal (z-score),[17],-0.501
same,glycan array binding signal (z-score),[18],0.008
same,glycan array binding signal (z-score),[19],0.395
same,glycan array binding signal (z-score),[20],-0.64
same,glycan array binding signal (z-score),[21],-0.244
same,glycan array binding signal (z-score),Man(a1-3)[Man(a1-6)]Man,-0.011
same,glycan array binding signal (z-score),[22],-0.088
same,glycan array binding signal (z-score),[23],-0.375
same,glycan array binding signal (z-score),[24],-0.41
same,glycan array binding signal (z-score),[25],-0.141
same,glycan array binding signal (z-score),[26],-0.452

# Two entries from above in another layout.
binder	measurement	setting	value
B1	glycan array binding signal (z-score)	[7]	-0.582
same	glycan array binding signal (z-score)	Kdn(a2-3)Gal(b1-3)GalNAc	-0.006
